Columns and labels:
mean corpuscular volume = mean corpuscular volume (MCV), full blood cell count; design: species or system human; settings: Example 28, Table 1; n = 10
lymphocytes (LYMPHO) = lymphocytes (LYMPHO) determination; design: species or system human; settings: Example 3; whole blood; N 48

Structure (SMILES)	MCV (mean corpuscular volume) [fL]	LYMPHO Mean (lymphocytes (LYMPHO)) [%]
O=C(O)CN(CCN(CC(=O)O)CC(=O)O)CCN(CC(=O)O)CC(=O)O [DTPA, diethylenetriaminepentaacetic acid]	93.6	–
O=C([O-])CN(CCN(CC(=O)[O-])CC(=O)O)CC(=O)[O-].[K+].[K+].[K+] [K3EDTA (BD), tripotassium EDTA, reference compound]	92.1	32.000
O=C(O)CC(O)(CC(=O)O)C(=O)O [CA, Citric acid monohydrate]	93.0	32.05
O=C(O)CN(CCN(CC(=O)O)CC(=O)O)CC(=O)O [EDTA, ethylenediaminetetraacetic acid]	94.4	–
O=C(O)c1c(C(=O)O)c(C(=O)O)c(C(=O)O)c(C(=O)O)c1C(=O)O [MELA, mellitic acid]	94.5	–
O=C(O)C1OC(C(=O)O)C(C(=O)O)C1C(=O)O (stereo not shown) [THTCA, Tetrahydrofuran-2,3,4,5-tetracarboxylic acid]	96.0	–
O=C(O)c1cc(C(=O)O)c(C(=O)O)c(C(=O)O)c1C(=O)O [BPCA, benzenepentacarboxylic acid]	101	–
O=C(O)CC(CC(=O)O)C(=O)O [TCA, tricarballylic acid]	96.7	–

Reference: patent publication US10969396B2, “In vitro method, use of an agent and collection device for the inhibition of coagulation in blood” (priority 2013, dated 2021)
